This is one part of the list.
Assays:
Assay in all cases: log2 fold change, soluble protein after heating vs DMSO (PISA); higher = thermal stabilisation; K562 cells, 10 uM, 30 min; active = over 0.2 and 3.5 SD of the protein, either way, in both replicates (recomputed)
bafetinib = compound: Cc1ccc(NC(=O)c2ccc(CN3CC[C@H](N(C)C)C3)c(C(F)(F)F)c2)cc1Nc1nccc(-c2cncnc2)n1 [bafetinib]
Outline: (§1)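 Soluble protein was defined as the supernatant after 21,000xg for 90 min. It came from K562 cells at 2×10^6 cells/mL given 10 μM compound for 30 min, heated in aliquots for 3 min across 48°C-58°C, pooled, and extracted in PBS with 0.5% NP-40 at 4°C, and was quantified by TMTpro 16plex LC-MS/MS with equalised channel sums. Thermal stability against control samples, from duplicates, is reported as log2 fold change.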

Sequences of proteins named here, by UniProt entry; tags and fusion partners are left off. A change or cut given only in a name is not applied to a line headed by its entry.
UniProt P07738: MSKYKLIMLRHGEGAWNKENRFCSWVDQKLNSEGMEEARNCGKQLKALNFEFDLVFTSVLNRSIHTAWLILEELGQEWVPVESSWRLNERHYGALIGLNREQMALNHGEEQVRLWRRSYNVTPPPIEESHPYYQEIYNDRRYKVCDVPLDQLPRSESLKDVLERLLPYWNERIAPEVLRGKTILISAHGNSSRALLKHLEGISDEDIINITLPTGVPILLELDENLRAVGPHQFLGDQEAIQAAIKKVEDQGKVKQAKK
UniProt Q9H3K6: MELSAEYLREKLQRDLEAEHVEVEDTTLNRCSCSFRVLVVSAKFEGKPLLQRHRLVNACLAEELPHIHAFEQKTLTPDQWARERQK
UniProt O15155: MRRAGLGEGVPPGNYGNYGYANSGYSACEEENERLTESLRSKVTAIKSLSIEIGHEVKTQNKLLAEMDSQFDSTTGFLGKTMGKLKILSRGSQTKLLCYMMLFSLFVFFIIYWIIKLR
UniProt Q9UHR4: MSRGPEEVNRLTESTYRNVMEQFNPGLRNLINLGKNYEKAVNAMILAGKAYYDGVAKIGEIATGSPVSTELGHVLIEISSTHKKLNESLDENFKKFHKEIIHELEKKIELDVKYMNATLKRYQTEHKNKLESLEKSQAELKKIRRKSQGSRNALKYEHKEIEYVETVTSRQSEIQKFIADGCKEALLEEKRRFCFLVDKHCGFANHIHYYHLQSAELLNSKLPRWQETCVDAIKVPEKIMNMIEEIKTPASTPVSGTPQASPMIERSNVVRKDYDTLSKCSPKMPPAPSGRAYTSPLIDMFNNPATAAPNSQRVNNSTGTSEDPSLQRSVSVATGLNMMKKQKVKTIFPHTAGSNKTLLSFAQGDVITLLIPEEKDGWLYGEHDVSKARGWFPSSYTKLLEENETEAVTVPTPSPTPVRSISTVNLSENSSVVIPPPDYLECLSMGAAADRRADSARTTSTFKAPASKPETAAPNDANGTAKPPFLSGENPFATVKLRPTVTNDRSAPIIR
UniProt P25311: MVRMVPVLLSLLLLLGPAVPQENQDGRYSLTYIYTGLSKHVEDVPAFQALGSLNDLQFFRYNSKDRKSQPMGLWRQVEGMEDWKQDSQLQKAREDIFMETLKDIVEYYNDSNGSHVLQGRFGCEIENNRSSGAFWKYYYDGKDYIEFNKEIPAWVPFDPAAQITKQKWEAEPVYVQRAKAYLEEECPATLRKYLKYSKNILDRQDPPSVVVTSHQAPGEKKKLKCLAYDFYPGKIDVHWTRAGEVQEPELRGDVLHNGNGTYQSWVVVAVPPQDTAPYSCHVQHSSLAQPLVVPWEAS
UniProt Q8TDN6: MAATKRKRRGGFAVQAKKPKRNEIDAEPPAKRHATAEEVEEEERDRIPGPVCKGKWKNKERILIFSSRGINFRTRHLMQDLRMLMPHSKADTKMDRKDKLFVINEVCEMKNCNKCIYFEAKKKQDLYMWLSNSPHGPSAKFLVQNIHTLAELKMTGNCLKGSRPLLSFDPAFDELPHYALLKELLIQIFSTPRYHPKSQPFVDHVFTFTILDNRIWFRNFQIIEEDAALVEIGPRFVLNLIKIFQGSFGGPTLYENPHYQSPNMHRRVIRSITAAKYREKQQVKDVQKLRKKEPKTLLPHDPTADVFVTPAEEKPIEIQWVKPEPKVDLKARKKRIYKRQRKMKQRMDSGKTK
UniProt Q9NSY1, whole entry, looked up: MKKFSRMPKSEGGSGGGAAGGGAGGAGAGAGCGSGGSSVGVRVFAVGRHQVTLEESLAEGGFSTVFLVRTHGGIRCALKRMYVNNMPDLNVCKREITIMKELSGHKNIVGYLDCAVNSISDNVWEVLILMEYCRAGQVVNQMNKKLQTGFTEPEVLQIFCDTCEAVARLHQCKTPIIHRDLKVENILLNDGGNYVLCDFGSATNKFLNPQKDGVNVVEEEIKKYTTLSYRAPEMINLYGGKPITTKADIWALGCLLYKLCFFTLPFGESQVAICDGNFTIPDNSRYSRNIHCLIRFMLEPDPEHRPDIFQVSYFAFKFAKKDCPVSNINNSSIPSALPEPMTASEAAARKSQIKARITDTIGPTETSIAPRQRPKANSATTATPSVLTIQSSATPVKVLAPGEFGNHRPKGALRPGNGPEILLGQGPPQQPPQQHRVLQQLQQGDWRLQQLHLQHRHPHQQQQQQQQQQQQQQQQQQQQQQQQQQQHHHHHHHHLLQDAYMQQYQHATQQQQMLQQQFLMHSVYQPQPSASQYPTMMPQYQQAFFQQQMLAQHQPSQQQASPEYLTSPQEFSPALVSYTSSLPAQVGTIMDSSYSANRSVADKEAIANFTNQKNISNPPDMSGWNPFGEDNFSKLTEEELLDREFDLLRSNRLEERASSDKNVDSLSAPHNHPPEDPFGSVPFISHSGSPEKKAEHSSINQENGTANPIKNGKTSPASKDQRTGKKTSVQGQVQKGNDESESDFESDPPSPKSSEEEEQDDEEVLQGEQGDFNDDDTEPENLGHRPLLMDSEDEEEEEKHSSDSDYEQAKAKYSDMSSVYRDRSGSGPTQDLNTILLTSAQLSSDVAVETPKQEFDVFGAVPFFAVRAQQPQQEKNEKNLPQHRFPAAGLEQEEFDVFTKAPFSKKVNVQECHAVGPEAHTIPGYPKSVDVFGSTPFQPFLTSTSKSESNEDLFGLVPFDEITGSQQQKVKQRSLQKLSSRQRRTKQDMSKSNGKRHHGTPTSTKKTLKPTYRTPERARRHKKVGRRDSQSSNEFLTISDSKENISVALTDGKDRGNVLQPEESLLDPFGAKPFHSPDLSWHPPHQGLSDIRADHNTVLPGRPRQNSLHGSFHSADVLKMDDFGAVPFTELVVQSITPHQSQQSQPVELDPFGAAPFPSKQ
UniProt O95999: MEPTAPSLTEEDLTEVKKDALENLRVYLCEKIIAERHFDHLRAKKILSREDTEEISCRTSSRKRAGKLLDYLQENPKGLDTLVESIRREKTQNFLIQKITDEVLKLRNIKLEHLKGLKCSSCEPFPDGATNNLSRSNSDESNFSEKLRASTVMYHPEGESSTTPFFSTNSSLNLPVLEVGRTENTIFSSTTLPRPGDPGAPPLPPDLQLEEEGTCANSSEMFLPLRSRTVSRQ
UniProt P61769, whole entry, looked up: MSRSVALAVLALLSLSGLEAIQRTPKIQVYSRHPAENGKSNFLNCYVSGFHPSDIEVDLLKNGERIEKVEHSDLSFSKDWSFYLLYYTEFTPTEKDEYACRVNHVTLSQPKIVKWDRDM
UniProt Q96GS4: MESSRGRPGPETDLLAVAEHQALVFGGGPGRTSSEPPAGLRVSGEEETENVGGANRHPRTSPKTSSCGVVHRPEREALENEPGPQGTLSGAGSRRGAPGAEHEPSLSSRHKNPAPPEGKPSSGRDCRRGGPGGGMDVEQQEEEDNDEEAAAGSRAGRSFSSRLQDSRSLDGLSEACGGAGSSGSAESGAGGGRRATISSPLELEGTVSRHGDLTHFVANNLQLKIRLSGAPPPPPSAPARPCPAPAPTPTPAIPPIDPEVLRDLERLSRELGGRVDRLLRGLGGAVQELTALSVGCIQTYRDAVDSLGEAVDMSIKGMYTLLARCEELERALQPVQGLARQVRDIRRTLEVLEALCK
UniProt Q6QNY1: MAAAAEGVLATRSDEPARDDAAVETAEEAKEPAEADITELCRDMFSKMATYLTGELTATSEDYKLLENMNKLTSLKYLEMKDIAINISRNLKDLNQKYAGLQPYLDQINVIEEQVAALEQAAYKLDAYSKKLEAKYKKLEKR
UniProt Q9P281: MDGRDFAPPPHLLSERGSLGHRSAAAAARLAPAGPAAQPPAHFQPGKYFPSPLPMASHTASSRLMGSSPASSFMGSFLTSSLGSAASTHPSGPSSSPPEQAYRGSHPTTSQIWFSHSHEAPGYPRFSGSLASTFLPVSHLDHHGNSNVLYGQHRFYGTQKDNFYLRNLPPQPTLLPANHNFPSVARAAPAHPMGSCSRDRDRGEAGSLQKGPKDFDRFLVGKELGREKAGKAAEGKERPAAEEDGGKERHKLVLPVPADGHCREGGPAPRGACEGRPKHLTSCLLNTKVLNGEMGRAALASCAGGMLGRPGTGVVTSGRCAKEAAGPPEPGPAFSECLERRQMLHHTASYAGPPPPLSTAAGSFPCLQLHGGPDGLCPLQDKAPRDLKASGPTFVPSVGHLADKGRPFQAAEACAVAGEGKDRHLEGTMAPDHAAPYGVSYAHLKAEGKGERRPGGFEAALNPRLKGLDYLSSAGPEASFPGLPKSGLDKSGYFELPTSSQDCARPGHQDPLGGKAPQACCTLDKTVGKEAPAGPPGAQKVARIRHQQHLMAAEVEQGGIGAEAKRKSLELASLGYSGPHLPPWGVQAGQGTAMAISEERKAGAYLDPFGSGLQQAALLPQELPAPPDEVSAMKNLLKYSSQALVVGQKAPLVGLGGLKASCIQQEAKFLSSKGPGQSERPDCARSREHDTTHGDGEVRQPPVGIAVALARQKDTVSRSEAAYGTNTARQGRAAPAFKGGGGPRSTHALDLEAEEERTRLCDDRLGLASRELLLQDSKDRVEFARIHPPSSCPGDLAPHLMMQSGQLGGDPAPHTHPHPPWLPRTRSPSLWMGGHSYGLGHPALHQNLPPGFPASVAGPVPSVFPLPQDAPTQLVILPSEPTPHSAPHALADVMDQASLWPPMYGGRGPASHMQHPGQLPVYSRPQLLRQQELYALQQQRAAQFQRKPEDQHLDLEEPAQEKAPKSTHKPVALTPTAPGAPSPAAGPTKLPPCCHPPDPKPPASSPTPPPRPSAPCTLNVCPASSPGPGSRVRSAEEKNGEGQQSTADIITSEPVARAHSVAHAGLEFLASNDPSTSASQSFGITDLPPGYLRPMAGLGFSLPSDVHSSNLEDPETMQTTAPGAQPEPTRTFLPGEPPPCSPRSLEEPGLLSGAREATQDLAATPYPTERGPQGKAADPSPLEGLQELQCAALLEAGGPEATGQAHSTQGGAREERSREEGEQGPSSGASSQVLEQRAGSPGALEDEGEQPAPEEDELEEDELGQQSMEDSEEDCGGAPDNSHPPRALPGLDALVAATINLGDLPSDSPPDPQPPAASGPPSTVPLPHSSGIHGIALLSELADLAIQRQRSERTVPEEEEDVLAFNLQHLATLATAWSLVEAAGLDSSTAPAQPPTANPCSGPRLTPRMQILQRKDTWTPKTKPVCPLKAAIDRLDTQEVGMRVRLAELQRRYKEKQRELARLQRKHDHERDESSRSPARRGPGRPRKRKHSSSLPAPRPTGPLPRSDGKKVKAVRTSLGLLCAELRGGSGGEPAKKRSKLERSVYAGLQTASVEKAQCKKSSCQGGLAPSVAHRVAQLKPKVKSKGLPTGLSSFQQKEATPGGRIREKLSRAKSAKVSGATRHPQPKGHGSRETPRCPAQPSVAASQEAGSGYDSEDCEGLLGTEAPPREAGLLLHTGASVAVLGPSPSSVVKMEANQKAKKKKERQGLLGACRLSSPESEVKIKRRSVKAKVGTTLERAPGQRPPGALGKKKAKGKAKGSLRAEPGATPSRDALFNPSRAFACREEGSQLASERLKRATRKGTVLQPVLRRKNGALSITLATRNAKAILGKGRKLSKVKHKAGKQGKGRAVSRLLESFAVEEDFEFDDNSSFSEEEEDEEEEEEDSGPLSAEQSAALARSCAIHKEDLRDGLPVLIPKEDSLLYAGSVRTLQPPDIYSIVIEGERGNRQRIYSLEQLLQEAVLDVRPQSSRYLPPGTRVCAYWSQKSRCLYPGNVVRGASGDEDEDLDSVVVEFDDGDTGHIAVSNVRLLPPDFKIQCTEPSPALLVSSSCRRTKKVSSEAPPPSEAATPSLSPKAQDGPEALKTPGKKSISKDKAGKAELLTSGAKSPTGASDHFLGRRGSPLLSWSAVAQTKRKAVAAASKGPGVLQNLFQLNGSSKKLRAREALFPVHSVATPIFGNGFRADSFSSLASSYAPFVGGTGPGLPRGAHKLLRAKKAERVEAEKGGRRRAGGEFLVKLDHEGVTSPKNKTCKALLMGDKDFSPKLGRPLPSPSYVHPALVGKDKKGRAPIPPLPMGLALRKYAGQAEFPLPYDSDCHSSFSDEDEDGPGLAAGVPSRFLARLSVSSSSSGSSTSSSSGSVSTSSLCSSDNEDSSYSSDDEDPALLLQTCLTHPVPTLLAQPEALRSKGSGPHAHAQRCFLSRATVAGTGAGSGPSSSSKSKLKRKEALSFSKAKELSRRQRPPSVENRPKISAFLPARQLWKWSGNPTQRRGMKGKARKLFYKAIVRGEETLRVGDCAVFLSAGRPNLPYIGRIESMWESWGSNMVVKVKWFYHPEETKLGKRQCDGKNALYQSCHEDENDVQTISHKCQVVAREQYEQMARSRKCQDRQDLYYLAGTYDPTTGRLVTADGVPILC
UniProt Q9UHQ4: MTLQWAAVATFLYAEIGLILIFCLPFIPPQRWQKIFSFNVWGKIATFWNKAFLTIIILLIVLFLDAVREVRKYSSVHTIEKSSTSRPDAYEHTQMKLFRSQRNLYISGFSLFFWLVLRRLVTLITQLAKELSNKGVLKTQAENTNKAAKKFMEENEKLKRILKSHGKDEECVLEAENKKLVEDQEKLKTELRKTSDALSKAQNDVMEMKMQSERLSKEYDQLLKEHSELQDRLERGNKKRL

[1] = compound: Cc1cccc(CC(=O)N2CCc3c2ccc(-c2cn(C)c4ncnc(N)c24)c3F)n1
Outline: as §1

nilotinib = compound: Cc1cn(-c2cc(NC(=O)c3ccc(C)c(Nc4nccc(-c5cccnc5)n4)c3)cc(C(F)(F)F)c2)cn1 [nilotinib]
Outline: as §1

[2] = compound: Cc1nc(Nc2n[nH]c3c2CN(C(=O)N[C@H](CN(C)C)c2ccccc2)C3(C)C)c2sccc2n1
Outline: as §1

dasatinib = compound: Cc1nc(Nc2ncc(C(=O)Nc3c(C)cccc3Cl)s2)cc(N2CCN(CCO)CC2)n1 [dasatinib]
Outline: as §1

[3] = compound: Cc1ncc(-c2ccnc(Nc3ccc(S(C)(=O)=O)cc3)n2)n1C(C)C
Outline: as §1

[4] = compound: Cn1cc(-c2ccc3c(c2)CCN3C(=O)Cc2cccc(C(F)(F)F)c2)c2c(N)ncnc21
Outline: as §1

[5] = compound: Cn1cc(-c2ccc3nnc(C(F)(F)c4ccc5ncccc5c4)n3n2)cn1
Outline: as §1

tipifarnib = compound: Cn1cncc1[C@@](N)(c1ccc(Cl)cc1)c1ccc2c(c1)c(-c1cccc(Cl)c1)cc(=O)n2C [tipifarnib]
Outline: as §1

mubritinib = compound: FC(F)(F)c1ccc(/C=C/c2nc(COc3ccc(CCCCn4ccnn4)cc3)co2)cc1 [mubritinib]
Outline: as §1

Measured: log2 fold change

BPGM (UniProt P07738)
inactive: bafetinib -0.019 | [1] 0.001 | nilotinib 0.005 | [2] -0.008 | dasatinib 0.044 | [3] -0.034 | [4] 0.032 | [5] -0.128 | tipifarnib 0.022 | mubritinib 0.064

BOLA2 (UniProt Q9H3K6)
inactive: bafetinib -0.026 | [1] 0.051 | nilotinib -0.027 | [2] -0.029 | dasatinib -0.037 | [3] 0.017 | [4] 0.061 | [5] 0.079 | tipifarnib -0.162 | mubritinib 0.027

BET1 (UniProt O15155)
inactive: bafetinib -0.093 | [1] -0.03 | nilotinib -0.019 | [2] 0.042 | dasatinib 0.038 | [3] -0.008 | [4] 0.008 | [5] 0.041 | tipifarnib -0.029 | mubritinib -0.032

BCAS1 (UniProt O75363)
inactive: bafetinib -0.059 | [1] -0.018 | nilotinib 0.013 | [2] 0.013 | dasatinib 0.041 | [3] 0.005 | [4] 0.077 | [5] -0.119 | tipifarnib 0.006 | mubritinib -0.182

BAIAP2L1 (UniProt Q9UHR4)
inactive: bafetinib -0.045 | [1] -0.014 | nilotinib -0.007 | [2] -0.065 | dasatinib 0.018 | [3] -0.014 | [4] 0.042 | [5] 0.023 | tipifarnib 0.014 | mubritinib 0.031

AZGP1 (UniProt P25311)
inactive: bafetinib 0.361 | [1] -0.299 | nilotinib -0.068 | [2] 0.304 | dasatinib -0.315 | [3] 0.606 | [4] 0.489 | [5] 0.279 | tipifarnib 0.078 | mubritinib -0.115

BCL2L2 isoform 2 (UniProt Q92843)
inactive: bafetinib -0.018 | [1] -0.058 | nilotinib -0.114 | [2] 0.017 | dasatinib 0.132 | [3] 0.096 | [4] -0.128 | [5] -0.098 | tipifarnib 0.012 | mubritinib -0.114

ATR (UniProt Q13535)
inactive: bafetinib -0.036 | [1] -0.028 | nilotinib -0.07 | [2] 0.036 | dasatinib -0.123 | [3] -0.054 | [4] 0.012 | [5] 0.039 | tipifarnib -0.022 | mubritinib -0.013

BOLA3 (UniProt Q53S33)
inactive: bafetinib -0.064 | [1] -0.033 | nilotinib 0.013 | [2] 0.013 | dasatinib 0.076 | [3] -0.004 | [4] 0.036 | [5] 0.034 | tipifarnib 0.007 | mubritinib 0.042

BSDC1 (UniProt Q9NW68)
inactive: bafetinib -0.142 | [1] 0.011 | nilotinib -0.014 | [2] -0.019 | dasatinib -0.003 | [3] -0.018 | [4] -0.006 | [5] 0.009 | tipifarnib -0.031 | mubritinib 0.017

BRIX1 (UniProt Q8TDN6)
inactive: bafetinib 0.386 | [1] -0.033 | nilotinib 0.085 | [2] -0.077 | dasatinib 0.109 | [3] -0.013 | [4] -0.494 | [5] -0.138 | tipifarnib 0.158 | mubritinib -0.206

BLVRA (UniProt P53004)
inactive: bafetinib -0.001 | [1] 0.008 | nilotinib -0.028 | [2] -0.008 | dasatinib -0.107 | [3] -0.062 | [4] 0.081 | [5] 0.025 | tipifarnib -0.098 | mubritinib -0.016

BMP2K (UniProt Q9NSY1)
active: [2] 0.534
inactive: bafetinib 0.037 | [1] -0.107 | nilotinib -0.067 | dasatinib 0 | [3] 0.34 | [4] -0.016 | [5] -0.036 | tipifarnib 0.016 | mubritinib -0.042

BCL10 (UniProt O95999)
inactive: bafetinib -0.088 | [1] -0.008 | nilotinib -0.042 | [2] -0.114 | dasatinib 0.013 | [3] -0.026 | [4] 0.023 | [5] -0.011 | tipifarnib -0.05 | mubritinib 0.033

B2M (UniProt P61769)
inactive: bafetinib 0.098 | [1] 0.011 | nilotinib 0.069 | [2] -0.058 | dasatinib 0.047 | [3] 0.004 | [4] 0.038 | [5] 0.031 | tipifarnib -0.07 | mubritinib -0.054

BAD (UniProt Q92934)
inactive: bafetinib -0.151 | [1] -0.046 | nilotinib 0.034 | [2] 0.009 | dasatinib 0.092 | [3] -0.069 | [4] 0.077 | [5] 0.076 | tipifarnib -0.005 | mubritinib -0.046

BORCS6 (UniProt Q96GS4)
inactive: bafetinib -0.066 | [1] 0.043 | nilotinib -0.016 | [2] 0.043 | dasatinib 0.069 | [3] -0.106 | [4] 0.048 | [5] 0.012 | tipifarnib 0.002 | mubritinib 0.083

ATXN2 (UniProt Q99700)
inactive: bafetinib -0.071 | [1] -0.018 | nilotinib 0.037 | [2] -0.01 | dasatinib 0 | [3] -0.05 | [4] -0.037 | [5] -0.007 | tipifarnib -0.019 | mubritinib 0.028

BACH1 (UniProt O14867)
inactive: bafetinib -0.045 | [1] -0.07 | nilotinib -0.002 | [2] 0 | dasatinib 0.034 | [3] -0.009 | [4] 0.005 | [5] -0.075 | tipifarnib 0.016 | mubritinib 0.022

BOP1 (UniProt Q14137)
inactive: bafetinib 0.031 | [1] -0.083 | nilotinib -0.028 | [2] -0.159 | dasatinib 0.02 | [3] -0.122 | [4] -0.038 | [5] -0.087 | tipifarnib 0.114 | mubritinib -0.114

BLOC1S1 (UniProt P78537)
inactive: bafetinib 0.004 | [1] -0.094 | nilotinib 0.021 | [2] -0.017 | dasatinib -0.003 | [3] -0.009 | [4] 0.04 | [5] 0.152 | tipifarnib -0.026 | mubritinib -0.026

BLOC1S2 (UniProt Q6QNY1)
inactive: bafetinib -0.105 | [1] 0.037 | nilotinib 0.007 | [2] -0.06 | dasatinib 0.038 | [3] 0.008 | [4] 0.041 | [5] 0.031 | tipifarnib -0.107 | mubritinib 0.036

B4GALT3 (UniProt O60512)
inactive: bafetinib -0.069 | [1] 0.024 | nilotinib 0.045 | [2] 0.151 | dasatinib -0.04 | [3] 0.103 | [4] -0.023 | [5] 0.091 | tipifarnib 0.091 | mubritinib -0.05

B3GLCT (UniProt Q6Y288)
inactive: bafetinib 0.049 | [1] 0.002 | nilotinib 0.046 | [2] 0.015 | dasatinib -0.108 | [3] -0.072 | [4] -0.036 | [5] -0.033 | tipifarnib -0.24 | mubritinib -0.094

BRAT1 (UniProt Q6PJG6)
inactive: bafetinib 0.002 | [1] 0.026 | nilotinib -0.004 | [2] 0.051 | dasatinib -0.195 | [3] -0.082 | [4] 0.046 | [5] 0 | tipifarnib -0.018 | mubritinib 0.023

BCKDK (UniProt O14874)
inactive: bafetinib -0.006 | [1] -0.067 | nilotinib -0.093 | [2] 0.058 | dasatinib 0.142 | [3] 0.041 | [4] -0.073 | [5] -0.058 | tipifarnib 0 | mubritinib -0.006

Random excerpt: two records from the list
BRAT1 (UniProt Q6PJG6)
inactive: bafetinib 0.002 | [1] 0.026 | nilotinib -0.004 | [2] 0.051 | dasatinib -0.195 | [3] -0.082 | [4] 0.046 | [5] 0 | tipifarnib -0.018 | mubritinib 0.023

B3GLCT (UniProt Q6Y288)
inactive: bafetinib 0.049 | [1] 0.002 | nilotinib 0.046 | [2] 0.015 | dasatinib -0.108 | [3] -0.072 | [4] -0.036 | [5] -0.033 | tipifarnib -0.24 | mubritinib -0.094

(cont.)

BAHCC1 (UniProt Q9P281)
inactive: bafetinib 0.077 | [1] -0.128 | nilotinib -0.081 | [2] 0.115 | dasatinib 0.092 | [3] -0.059 | [4] -0.216 | [5] 0.171 | tipifarnib 0.107 | mubritinib -0.039

BCAP29 isoform 2 (UniProt Q9UHQ4)
inactive: bafetinib -0.159 | [1] -0.027 | nilotinib -0.002 | [2] 0.035 | dasatinib 0.154 | [3] -0.018 | [4] 0 | [5] 0.04 | tipifarnib 0.058 | mubritinib 0.02

B3GNTL1 (UniProt Q67FW5)
inactive: bafetinib -0.098 | [1] -0.056 | nilotinib 0.029 | [2] 0.159 | dasatinib 0.036 | [3] 0.017 | [4] 0.004 | [5] -0.231 | tipifarnib -0.082 | mubritinib 0.029

BECN1 (UniProt Q14457)
inactive: bafetinib 0.063 | [1] -0.032 | nilotinib 0.032 | [2] -0.025 | dasatinib -0.072 | [3] 0.076 | [4] -0.015 | [5] -0.038 | tipifarnib -0.003 | mubritinib 0.023

Source: the supplement of paper PMC10849652
